Laboratory results as given in PMC2362126.
These are yes or no findings as the source states them, for the method shown. For part of these data: Binding can be weak; no strength is given. Tags and fused reporters may be left off the sequences shown.

Sequences of proteins named here, by UniProt entry; tags and fusion partners are left off. A change or cut given only in a name is not applied to a line headed by its entry.
UniProt P34148: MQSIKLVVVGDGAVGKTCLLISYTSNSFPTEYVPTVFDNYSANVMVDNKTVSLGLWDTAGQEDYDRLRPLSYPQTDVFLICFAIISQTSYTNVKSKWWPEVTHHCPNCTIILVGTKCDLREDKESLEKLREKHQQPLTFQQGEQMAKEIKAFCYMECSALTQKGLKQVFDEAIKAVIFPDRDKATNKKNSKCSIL
UniProt P34149: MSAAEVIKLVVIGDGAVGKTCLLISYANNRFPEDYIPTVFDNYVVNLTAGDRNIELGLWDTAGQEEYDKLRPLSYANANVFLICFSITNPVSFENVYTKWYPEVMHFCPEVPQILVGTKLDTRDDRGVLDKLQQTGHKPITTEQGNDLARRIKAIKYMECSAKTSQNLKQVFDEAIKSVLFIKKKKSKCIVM
UniProt Q23862: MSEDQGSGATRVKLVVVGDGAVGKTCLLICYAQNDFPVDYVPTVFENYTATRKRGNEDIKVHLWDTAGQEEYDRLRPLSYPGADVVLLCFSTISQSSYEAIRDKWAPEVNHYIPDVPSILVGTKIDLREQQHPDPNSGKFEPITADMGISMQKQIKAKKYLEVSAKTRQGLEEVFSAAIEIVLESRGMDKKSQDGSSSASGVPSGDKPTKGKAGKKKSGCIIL
UniProt Q9GPS3: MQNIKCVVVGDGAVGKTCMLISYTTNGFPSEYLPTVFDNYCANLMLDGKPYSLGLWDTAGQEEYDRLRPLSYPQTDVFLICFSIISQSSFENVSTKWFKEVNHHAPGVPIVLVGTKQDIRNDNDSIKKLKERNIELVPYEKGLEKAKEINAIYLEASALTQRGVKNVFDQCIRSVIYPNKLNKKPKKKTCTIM
UniProt P61586: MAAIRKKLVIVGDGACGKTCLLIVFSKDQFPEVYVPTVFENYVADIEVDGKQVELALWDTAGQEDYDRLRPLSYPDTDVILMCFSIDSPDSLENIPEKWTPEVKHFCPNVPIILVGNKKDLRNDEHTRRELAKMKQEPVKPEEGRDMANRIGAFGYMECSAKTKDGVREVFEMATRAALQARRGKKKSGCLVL

Key:
[1] = biological target: Tuber borchii Cdc42 (TbCdc42), two-hybrid fusion in pGBKT7 (Tuber borchii); test: two-hybrid; Matchmaker system (Clontech), Y190 yeast; RhoGDIs in pGADT7 or pACT2, Rho GTPases in pGBKT7 or pAS2-1; growth on -Trp/-Leu/-His/+3AT and colony-lift β-galactosidase assays
[2] = biological target: GST-tagged D. discoideum RacB in insect cell membranes (D. discoideum) (UniProt P34148); test: translocation assay (solubilisation of membrane-bound Rho GTPase by soluble RhoGDI); membranes of insect or HeLa cells expressing Rho GTPases (1.0 mg protein) rotated 15 h at 4°C with 40 μM His-tagged RhoGDI in 20 mM Tris-HCl pH 7.5, 1 mM EDTA, 1 mM dithiotreitol, 0.1 mM PMSF; 100,000 x g, supernatants blotted; only the binder purified
[3] = biological target: GST-tagged D. discoideum RacC in insect cell membranes (D. discoideum) (UniProt P34149); test: as above
[4] = biological target: GST-tagged D. discoideum RacE in insect cell membranes (D. discoideum) (UniProt Q23862); test: as above
[5] = biological target: GST-tagged D. discoideum RacF2 in insect cell membranes (D. discoideum) (UniProt Q9GPS3); test: as above
[6] = biological target: untagged human RhoA in insect cell membranes (human) (UniProt P61586); test: as above

Row | binding [1] | binding [2] | binding [3] | binding [4] | binding [5] | binding [6] | Binder
1 | binds |  |  |  |  |  | human LyGDI (RhoGDI2), two-hybrid fusion in pACT2 (protein, UniProt P52566 1-201) MTEKAPEPHVEEDDDDELDSKLNYKPPPQKSLKELQEMDKDDESLIKYKKTLLGDGPVVTDPKAPNVVVTRLTLVCESAPGPITMDLTGDLEALKKETIVLKEGSEYRVKIHFKVNRDIVSGLKYVQHTYRTGVKVDKATFMVGSYGPRPEEYEFLTPVEEAPKGMLARGTYHNKSFFTDDDKQDHLSWEWNLSIKKEWTE
2 |  | binds | binds | binds weakly | no binding (tested: 40 μM) | binds | recombinant His-tagged bovine RhoGDI (protein, UniProt P19803 1-204) MAEQEPTAEQLAQIAAENEEDEHSVNYKPPAQKSIQEIQELDKDDESLRKYKEALLGRVAVSADPNVPNVVVTRLTLVCSTAPGPLELDLTGDLESFKKQSFVLKEGVEYRIKISFRVNREIVSGMKYIQHTYRKGVKIDKTDYMVGSYGPRAEEYEFLTPMEEAPKGMLARGSYNIKSRFTDDDRTDHLSWEWNLTIKKEWKD
